# Percent effect of library compounds

Chains of the proteins cited; added tags and fusions are not shown.
UniProt P9WPC5, whole entry: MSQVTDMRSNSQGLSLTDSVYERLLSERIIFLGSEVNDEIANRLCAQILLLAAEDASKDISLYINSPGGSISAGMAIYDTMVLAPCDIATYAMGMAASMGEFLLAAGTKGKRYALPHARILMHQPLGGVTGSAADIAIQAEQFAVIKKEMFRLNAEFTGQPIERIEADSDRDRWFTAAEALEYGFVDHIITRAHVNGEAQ
UniProt P9WPC3, whole entry partner: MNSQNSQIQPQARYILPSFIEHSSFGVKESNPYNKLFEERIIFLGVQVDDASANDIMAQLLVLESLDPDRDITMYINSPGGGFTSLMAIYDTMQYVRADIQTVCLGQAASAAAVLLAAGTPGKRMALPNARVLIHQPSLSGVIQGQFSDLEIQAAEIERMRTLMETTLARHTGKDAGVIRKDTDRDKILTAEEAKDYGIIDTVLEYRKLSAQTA
UniProt P9WFT3, whole entry: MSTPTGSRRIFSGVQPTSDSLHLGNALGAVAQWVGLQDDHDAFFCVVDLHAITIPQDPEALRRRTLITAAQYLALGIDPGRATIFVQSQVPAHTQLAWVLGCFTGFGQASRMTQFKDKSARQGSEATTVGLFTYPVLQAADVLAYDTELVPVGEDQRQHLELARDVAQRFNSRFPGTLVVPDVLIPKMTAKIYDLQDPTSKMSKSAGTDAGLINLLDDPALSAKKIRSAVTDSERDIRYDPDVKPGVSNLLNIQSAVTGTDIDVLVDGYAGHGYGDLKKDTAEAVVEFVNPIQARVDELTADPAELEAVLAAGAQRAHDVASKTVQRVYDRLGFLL
UniProt P9WNZ1, whole entry: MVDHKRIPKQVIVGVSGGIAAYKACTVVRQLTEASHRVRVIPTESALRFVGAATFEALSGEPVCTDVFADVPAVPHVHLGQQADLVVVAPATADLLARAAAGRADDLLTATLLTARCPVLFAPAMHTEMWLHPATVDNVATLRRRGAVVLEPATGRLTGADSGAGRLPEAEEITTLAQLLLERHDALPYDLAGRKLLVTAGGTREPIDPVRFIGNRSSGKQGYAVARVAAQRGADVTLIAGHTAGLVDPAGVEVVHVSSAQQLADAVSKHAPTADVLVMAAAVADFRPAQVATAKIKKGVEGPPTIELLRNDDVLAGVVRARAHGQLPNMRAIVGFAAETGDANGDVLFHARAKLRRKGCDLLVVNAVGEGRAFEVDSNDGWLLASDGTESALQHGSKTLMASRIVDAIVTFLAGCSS

Measurements from “University of Dundee, Small-Polar-MMV Screening Library” (2021), ChEMBL document CHEMBL3988442.

ClpP1P2: 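Protease assay of ClpP1P2, read by the AMC dye that it sets free. Target: ClpP1P2, Mycobacterium tuberculosis (UniProt P9WPC5 and UniProt P9WPC3). Tested at 50 µM. Direction is inferred from only a few compounds that gave an IC50; most scored high, so higher reads as stronger inhibition. Most other retested compounds had strongly negative values. Of about 69,000 compounds tested this way, about 10 (0.015%) reached 50% or more in at least one test.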
Toxoplasma: 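Assay of Toxoplasma gondii numbers, read through their beta-galactosidase reporter with a colour substrate. Compounds at 10 µM. The record gives no direction; the compounds picked for IC50 retests had high values, so higher reads as fewer parasites. About 67,000 compounds were tested under these conditions; 0.38% (about 260) showed 50% or more at least once.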
MtTrpRS: 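Tryptophan-tRNA ligase, Mycobacterium tuberculosis (UniProt P9WFT3). Enzyme assay of tryptophanyl-tRNA synthetase; the read-out is not stated. Concentration: 10 µM. Direction is not recorded; retested compounds ran higher, which suggests that high means inhibition. Of about 65,000 compounds tested this way, about 64 (0.098%) reached 50% or more in at least one test.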
CoaBC: 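Enzyme assay of CoaBC with a phosphate dye (Biomol Green) read at 650 nm. Target: Coenzyme A biosynthesis protein CoaBC, Mycobacterium tuberculosis (UniProt P9WNZ1). Compounds at 30 µM. Higher reads as stronger inhibition, judged from the few compounds that gave an IC50. Most strong results did not repeat in a second test. Of about 67,000 compounds tested this way, about 40 (0.06%) reached 50% or more in at least one test.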

Results are given as percent effect.
The record does not define 0% and 100%; most values in the screen are far below 50% and negative numbers occur (in some assays of this library far below -100).
Compounds were drawn at random from those tested, without regard to their results.
A dash means the value is not listed here; it may have been measured.

* O=C(O)c1ccc2c(CN3CCOCC3)c[nH]c2c1 | ClpP1P2: -11.86%; Toxoplasma: -9.189%; MtTrpRS: -1.814%; CoaBC: -1.631%
* Cc1ncc2c(n1)CCN(C(C(N)=O)c1ccccc1)C2 (stereo unspecified) | ClpP1P2: 9.507%; Toxoplasma: 10.98%; MtTrpRS: -1.31%; CoaBC: 5.034%
* CC(C)CC(=O)N1CC[C@H]2N(C)CC[C@@]2(C(=O)Nc2ccccc2)CC1 | ClpP1P2: 16.92%; MtTrpRS: -0.6916%; CoaBC: 3.258%
* NC[C@H]1CC[C@H](C(NC(=O)CC2CCCCC2)c2ccccn2)CC1 (stereo partly specified) | ClpP1P2: -2.502%; Toxoplasma: 15.77%; CoaBC: 2.184%
* CC(=O)N1CCN(Cc2ccsc2)CC2(CC(=O)N(C)C2)C1.O=C(O)C(F)(F)F (stereo unspecified) | Toxoplasma: -31.84%
* Cn1nc2c(cc1=O)CN(CC(=O)Nc1nncs1)CC2 | ClpP1P2: -2.763%; Toxoplasma: 0.4153%; MtTrpRS: 0.6463%; CoaBC: 3.353%
* Cc1cn(CC(=O)NC2CCC3(CC2)OCCO3)c2ccccc12 | ClpP1P2: 3.817%; Toxoplasma: -1.925%; MtTrpRS: 0.09234%; CoaBC: 0.1972%
* CCc1nc(CN2CCCN(C(=O)c3ccco3)CC2)cs1 | ClpP1P2: 11.78%; Toxoplasma: -24.37%; MtTrpRS: 5.159%; CoaBC: 5.342%
* CN(C)c1ccc(C(=O)N(Cc2ccncc2)CC2CCCO2)nn1 (stereo unspecified) | ClpP1P2: 5.368%; Toxoplasma: 12.42%; MtTrpRS: -3.701%; CoaBC: 5.031%
* O=C(O)C(F)(F)F.[H][C@@]12CCCO[C@]1([H])[C@H](N(C)C)CN2C(=O)Cc1cccs1 | Toxoplasma: -11.74%
* CSC1(CNC(=O)N(C)Cc2sccc2C)CCOCC1 | ClpP1P2: 10.91%; Toxoplasma: -46.66%; MtTrpRS: -3.558%; CoaBC: 6.083%
* CCN(C(C)=O)C1CCN(c2nccc(CCC(F)(F)F)n2)C1 (stereo unspecified) | ClpP1P2: 5.016%; Toxoplasma: 4.519%; MtTrpRS: -0.5455%; CoaBC: 1.691%
* CC(=O)N1CCN(C(=O)CNc2ccc3sccc3c2)CC1 | ClpP1P2: 7.345%; Toxoplasma: 1.444%; MtTrpRS: 0.3112%; CoaBC: 1.375%
* O=C(NCCc1c[nH]cn1)c1ccc(S(=O)(=O)NC2CCCC2)cc1 | ClpP1P2: 16.82%; Toxoplasma: 10.1%; MtTrpRS: 1.098%; CoaBC: 11.6%
* O=c1c2cnc(N3CCOCC3)nc2ccn1-c1ccccc1 | ClpP1P2: -2.114%; Toxoplasma: -8.036%; MtTrpRS: -3.65%; CoaBC: -10.49%
* Cc1nn(C)cc1C1CC(=O)Nc2c1cnn2C(C)(C)C (stereo unspecified) | ClpP1P2: -5.194%; Toxoplasma: 26.01%; MtTrpRS: 2.644%; CoaBC: -1.574%
* COc1cccc2c1OCC(C(=O)NC1CCN(S(C)(=O)=O)CC1)C2 (stereo unspecified) | ClpP1P2: -0.1642%; Toxoplasma: -1.287%; MtTrpRS: 1.253%; CoaBC: 0%
* Cc1cc2cc(C(=O)N[C@@H]3CC[C@@H](N4CCNC(=O)C4)[C@@H]3O)ccc2o1 | ClpP1P2: -10.22%; Toxoplasma: -4.74%; CoaBC: 2.427%
* COc1cccc(CNCCc2cc(F)cc3c2OCOC3)c1OC | ClpP1P2: -22.86%; Toxoplasma: -3.936%; MtTrpRS: 0.5092%; CoaBC: 1.531%
* COC(=O)c1ccccc1NC(=O)c1nc2ccccc2n(C)c1=O | ClpP1P2: -6.303%; Toxoplasma: -3.326%; MtTrpRS: -4.079%; CoaBC: 1.648%
* Cc1cnn(CC2CCN(CC(O)COc3ccccc3)CC2)c1 (stereo unspecified) | ClpP1P2: -11.66%; Toxoplasma: 1.308%; MtTrpRS: -0.6399%; CoaBC: -4.839%
* CCN(Cc1ccncc1)C(=O)c1cc(C)c(C)c(S(N)(=O)=O)c1 | ClpP1P2: 1.213%; Toxoplasma: -4.811%; MtTrpRS: -2.938%; CoaBC: 9.553%
* CC(=O)N1CCN(c2cc(CCN)nc(C3CC3)n2)CC1 | ClpP1P2: 1.378%; CoaBC: -3.431%
* CCc1c(C(=O)N2CCC3(CCCN(CCO)C3=O)C2)csc1C (stereo unspecified) | ClpP1P2: -4.387%; Toxoplasma: -4.169%; MtTrpRS: -1.401%; CoaBC: -0.2179%

Once more, the final 2:

Compound,ClpP1P2,Toxoplasma,MtTrpRS,CoaBC
CC(=O)N1CCN(c2cc(CCN)nc(C3CC3)n2)CC1,1.378,-,-,-3.431
CCc1c(C(=O)N2CCC3(CCCN(CCO)C3=O)C2)csc1C (stereo unspecified),-4.387,-4.169,-1.401,-0.2179